PubChem BioAssay AID1159584 | Peter MacCallum Cancer Centre | 2016
Screen: 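Genes whose loss is lethal only together with E-cadherin loss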 (primary screen). Cells: human MCF10A breast epithelial cells, parental and CDH1-null. Knock-down reagent: siRNA against human genes. Detection: 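ATP luminescence (CellTiter-Glo) viability per line relative to mean mock wells over all plates, and the ratio of CDH1-null to parental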. Direction: CDH1-null / parental viability ratio: higher = CDH1-null cells survive relatively better than parental.
In all, the deposit lists about 18,000 reagents; below is a random part of them. Further read-outs or replicates are left out here. Reagent sequences are not shown. The record does not give: the amount of reagent, the time to read-out.

C5orf15 [SID134323949] → CDH1-null / parental viability ratio = 1.19
SPRR2B [SID135623817] → CDH1-null / parental viability ratio = 0.99
WDFY2 [SID152156669] → CDH1-null / parental viability ratio = 0.98
OR52W1 [SID152149212] → CDH1-null / parental viability ratio = 0.94
MAVS [SID135624444] → CDH1-null / parental viability ratio = 0.71
CAMK2A [SID56478931] → CDH1-null / parental viability ratio = 1.08
CYFIP2 [SID152155224] → CDH1-null / parental viability ratio = 1.12
OSGEPL1 [SID135621117] → CDH1-null / parental viability ratio = 1.02
NIT2 [SID135623414] → CDH1-null / parental viability ratio = 0.9
SOCS4 [SID134313874] → CDH1-null / parental viability ratio = 1.1
NPHP3 [SID134323065] → CDH1-null / parental viability ratio = 0.9
MPPE1 [SID152149504] → CDH1-null / parental viability ratio = 0.95
RAD54B [SID134315071] → CDH1-null / parental viability ratio = 0.99
MFAP3 [SID134321046] → CDH1-null / parental viability ratio = 1.1
ZNF213 [SID135621784] → CDH1-null / parental viability ratio = 1
ANKZF1 [SID135624131] → CDH1-null / parental viability ratio = 0.87

A portion from the list above, as a working copy:
NPHP3 [SID134323065] → CDH1-null / parental viability ratio = 0.9
MPPE1 [SID152149504] → CDH1-null / parental viability ratio = 0.95
RAD54B [SID134315071] → CDH1-null / parental viability ratio = 0.99
MFAP3 [SID134321046] → CDH1-null / parental viability ratio = 1.1

The list goes on.
RRP12 [SID135622668] → CDH1-null / parental viability ratio = 1.03
LIX1L [SID134320649] → CDH1-null / parental viability ratio = 0.95
GPR32 [SID134311007] → CDH1-null / parental viability ratio = 1.44
GABRA6 [SID152149370] → CDH1-null / parental viability ratio = 1.31
OPN1LW [SID152146884] → CDH1-null / parental viability ratio = 0.76
VAMP4 [SID134310336] → CDH1-null / parental viability ratio = 1.04
SLC2A14 [SID134312560] → CDH1-null / parental viability ratio = 0.95
NPPB [SID152151380] → CDH1-null / parental viability ratio = 1.02
EFTUD2 [SID134323613] → CDH1-null / parental viability ratio = 1.38
KIDINS220 [SID152149353] → CDH1-null / parental viability ratio = 1.04
GAB1 [SID134309953] → CDH1-null / parental viability ratio = 1.17
TBC1D14 [SID134318220] → CDH1-null / parental viability ratio = 0.87
CCR4 [SID134310902] → CDH1-null / parental viability ratio = 1.57
AKAP13 [SID56479218] → CDH1-null / parental viability ratio = 0.8
PLAAT4 [SID152154573] → CDH1-null / parental viability ratio = 0.97
LBP [SID134314761] → CDH1-null / parental viability ratio = 0.92
EIF3M [SID152147764] → CDH1-null / parental viability ratio = 1.11
PLOD2 [SID152154480] → CDH1-null / parental viability ratio = 0.83
PCBP3 [SID134317433] → CDH1-null / parental viability ratio = 0.99
